Data on three molecules can be found in patent US20210054084A1 (published 2021).

The target in assay [1] is recombinant human CD25 (ELISA antigen) (human) (UniProt P01589). In words: summary of the Table 3 assays (ELISA, flow cytometry).
For assay [2] the target is unchanged. Briefly: ELISA, scFv on rhCD25; positive = OD above 3 times background.
In assay [3] the target is T1, recombinant human CD25 his tagged (UniProt P01589 22-213).
T1 chain: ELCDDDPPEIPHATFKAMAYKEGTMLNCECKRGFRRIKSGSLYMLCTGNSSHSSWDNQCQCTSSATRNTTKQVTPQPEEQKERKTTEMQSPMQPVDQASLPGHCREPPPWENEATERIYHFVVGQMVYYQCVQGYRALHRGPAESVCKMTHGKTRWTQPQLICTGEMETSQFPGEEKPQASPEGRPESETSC
Briefly: BLI, Octet Red 96, antibody on AHC biosensor.

Assay [4] deals with T1, recombinant human CD25 his tagged. In words: Octet sequential binding, rhCD25 his on Ni-NTA biosensors.

These are yes or no findings as the source states them, for the method shown. Some results given as binding are weak or reduced against the parent protein; the word gives no strength.

B1: Antibody 2 (scFv in bacterial supernatant) (scFv, V domains shown, not shown: large carriers; small tags and cut ends)
VH: EVQLLESGGGLVQPGGSLRLSCAASGFSVDIYDMSWVRQAPGKGLEWVAYISSSLGATYYADSVKGRFTISRDNSKNTLYLQMNSLRAEDTAVYYCARERIYSVYTLDYYAMDLWGQGTLVTVSS
VL: DIQMTQSPSSLSASVGDRVTITCQASQGITNNLNWYQQKPGKVPKLLIYAASTLQSGVPSRFSGSGSGTDFTLTISSLQPEDVATYYCQQGYTTSNVDNAFGGGTKVEIK
On to B1, for which the binding result in assay [1] and in assay [2] was “binds” each time.

B2: Antibody 1 (scFv in bacterial supernatant) (scFv, V domains shown, not shown: large carriers; small tags and cut ends)
VH: EVQLVESGGGLIQPGGSLRLSCAASGFTLDSYGVSWVRQAPGKGLEWVGVTSSGGSAYYADSVKGRFTISRDNSKNTLYLQMNSLRAEDTAVYYCARDRYVYTGGYLYHYGMDLWGQGTLVTVSS
VL: DIQMTQSPSSLSASVGDRVTITCRASQSISDYLAWYQQKPGKVPKLLIYAASTLPFGVPSRFSGSGSGTDFTLTISSLQPEDVATYYCQGTYDSSDWYWAFGGGTKVEIK
In the case of B2, the binding entry in assay [1] and in assay [2] was “binds” in each case.

B3: Antibody 1 as human IgG1 expressed in mammalian cells (antibody, V domains shown)
VH: EVQLVESGGGLIQPGGSLRLSCAASGFTLDSYGVSWVRQAPGKGLEWVGVTSSGGSAYYADSVKGRFTISRDNSKNTLYLQMNSLRAEDTAVYYCARDRYVYTGGYLYHYGMDLWGQGTLVTVSS
VL: DIQMTQSPSSLSASVGDRVTITCRASQSISDYLAWYQQKPGKVPKLLIYAASTLPFGVPSRFSGSGSGTDFTLTISSLQPEDVATYYCQGTYDSSDWYWAFGGGTKVEIK
Turning to B3, the binding entry in assay [3] and in assay [4] was “binds” each time.
